Source: the supplement of paper PMC8728848
The other results are listed elsewhere or left out.

How the values were obtained:
Test in all cases: glycan array binding signal (z-score within array); higher = stronger binding
Conditions in all cases: glycan notation: IUPAC condensed, linker removed
[1] = target: GlcNAc(b1-2)[GlcNAc(b1-6)]Man(a1-6)[GlcNAc(b1-2)Man(a1-3)]Man(b1-4)GlcNAc(b1-4)[Fuc(a1-6)]GlcNAc
Outline: (§1)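 The binding signal is a Z-score computed within each array and averaged over linkers. Arrays of the same protein sequence at different concentrations or buffers were also averaged together. Data originate from 3228 arrays in the Consortium for Functional Glycomics database, kept only where the protein sequence was available.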

[2] = target: GlcNAc(b1-2)[GlcNAc(b1-6)]Man(a1-6)[GlcNAc(b1-2)Man(a1-3)][GlcNAc(b1-4)]Man(b1-4)GlcNAc(b1-4)GlcNAc
Outline: as §1

[3] = target: GlcNAc(b1-2)[GlcNAc(b1-6)]Man(a1-6)[GlcNAc(b1-4)][GlcNAc(b1-2)Man(a1-3)]Man(b1-4)GlcNAc(b1-4)GlcNAc
Outline: as §1

GlcNAc(b1-3)Fuc = target: GlcNAc(b1-3)Fuc
Outline: as §1

GlcNAc(b1-3)Gal = target: GlcNAc(b1-3)Gal
Outline: as §1

[4] = target: GlcNAc(b1-3)Gal(b1-3)GalNAc
Outline: as §1

GlcNAc(b1-3)Gal(b1-4)Glc = target: GlcNAc(b1-3)Gal(b1-4)Glc
Outline: as §1

[5] = target: GlcNAc(b1-3)Gal(b1-4)GlcNAc
Outline: as §1

[6] = target: GlcNAc(b1-3)Gal(b1-4)GlcNAc(b1-2)Man(a1-3)[GlcNAc(b1-3)Gal(b1-4)GlcNAc(b1-2)Man(a1-6)]Man(b1-4)GlcNAc(b1-4)GlcNAc
Outline: as §1

[7] = target: GlcNAc(b1-3)Gal(b1-4)GlcNAc(b1-2)Man(a1-3)[GlcNAc(b1-3)Gal(b1-4)GlcNAc(b1-2)Man(a1-6)]Man(b1-4)GlcNAc(b1-4)[Fuc(a1-6)]GlcNAc
Outline: as §1

[8] = target: GlcNAc(b1-3)Gal(b1-4)GlcNAc(b1-2)[GlcNAc(b1-3)Gal(b1-4)GlcNAc(b1-6)]Man(a1-6)[GlcNAc(b1-3)Gal(b1-4)GlcNAc(b1-2)Man(a1-3)]Man(b1-4)GlcNAc(b1-4)GlcNAc
Outline: as §1

[9] = target: GlcNAc(b1-3)Gal(b1-4)GlcNAc(b1-3)Gal(b1-4)GlcNAc
Outline: as §1

[10] = target: GlcNAc(b1-3)Gal(b1-4)GlcNAc(b1-3)Gal(b1-4)GlcNAc(b1-2)Man(a1-3)[GlcNAc(b1-3)Gal(b1-4)GlcNAc(b1-3)Gal(b1-4)GlcNAc(b1-2)Man(a1-6)]Man(b1-4)GlcNAc(b1-4)GlcNAc
Outline: as §1

[11] = target: GlcNAc(b1-3)Gal(b1-4)GlcNAc(b1-3)Gal(b1-4)GlcNAc(b1-2)Man(a1-3)[GlcNAc(b1-3)Gal(b1-4)GlcNAc(b1-3)Gal(b1-4)GlcNAc(b1-2)Man(a1-6)]Man(b1-4)GlcNAc(b1-4)[Fuc(a1-6)]GlcNAc
Outline: as §1

[12] = target: GlcNAc(b1-3)Gal(b1-4)GlcNAc(b1-3)Gal(b1-4)GlcNAc(b1-2)[GlcNAc(b1-3)Gal(b1-4)GlcNAc(b1-3)Gal(b1-4)GlcNAc(b1-6)]Man(a1-6)[GlcNAc(b1-3)Gal(b1-4)GlcNAc(b1-3)Gal(b1-4)GlcNAc(b1-2)Man(a1-3)]Man(b1-4)GlcNAc(b1-4)[Fuc(a1-6)]GlcNAc
Outline: as §1

[13] = target: GlcNAc(b1-3)Gal(b1-4)GlcNAc(b1-3)Gal(b1-4)GlcNAc(b1-3)Gal(b1-4)GlcNAc(b1-2)Man(a1-3)[GlcNAc(b1-3)Gal(b1-4)GlcNAc(b1-3)Gal(b1-4)GlcNAc(b1-3)Gal(b1-4)GlcNAc(b1-2)Man(a1-6)]Man(b1-4)GlcNAc(b1-4)GlcNAc
Outline: as §1

[14] = target: GlcNAc(b1-3)Gal(b1-4)GlcNAc(b1-3)Gal(b1-4)GlcNAc(b1-3)Gal(b1-4)GlcNAc(b1-2)Man(a1-3)[GlcNAc(b1-3)Gal(b1-4)GlcNAc(b1-3)Gal(b1-4)GlcNAc(b1-3)Gal(b1-4)GlcNAc(b1-2)Man(a1-6)]Man(b1-4)GlcNAc(b1-4)[Fuc(a1-6)]GlcNAc
Outline: as §1

[15] = target: GlcNAc(b1-3)Gal(b1-4)GlcNAc(b1-3)Gal(b1-4)GlcNAc(b1-3)Gal(b1-4)GlcNAc(b1-2)[GlcNAc(b1-3)Gal(b1-4)GlcNAc(b1-3)Gal(b1-4)GlcNAc(b1-3)Gal(b1-4)GlcNAc(b1-6)]Man(a1-6)[GlcNAc(b1-3)Gal(b1-4)GlcNAc(b1-3)Gal(b1-4)GlcNAc(b1-3)Gal(b1-4)GlcNAc(b1-2)Man(a1-3)]Man(b1-4)GlcNAc(b1-4)[Fuc(a1-6)]GlcNAc
Outline: as §1

[16] = target: GlcNAc(b1-3)Gal(b1-4)GlcNAc(b1-3)Gal(b1-4)GlcNAc(b1-3)Gal(b1-4)GlcNAc(b1-3)Gal(b1-4)GlcNAc(b1-2)Man(a1-3)[GlcNAc(b1-3)Gal(b1-4)GlcNAc(b1-3)Gal(b1-4)GlcNAc(b1-3)Gal(b1-4)GlcNAc(b1-3)Gal(b1-4)GlcNAc(b1-2)Man(a1-6)]Man(b1-4)GlcNAc(b1-4)GlcNAc
Outline: as §1

[17] = target: GlcNAc(b1-3)Gal(b1-4)GlcNAc(b1-3)Gal(b1-4)GlcNAc(b1-3)Gal(b1-4)GlcNAc(b1-3)Gal(b1-4)GlcNAc(b1-2)Man(a1-3)[GlcNAc(b1-3)Gal(b1-4)GlcNAc(b1-3)Gal(b1-4)GlcNAc(b1-3)Gal(b1-4)GlcNAc(b1-3)Gal(b1-4)GlcNAc(b1-2)Man(a1-6)]Man(b1-4)GlcNAc(b1-4)[Fuc(a1-6)]GlcNAc
Outline: as §1

[18] = target: GlcNAc(b1-3)Gal(b1-4)GlcNAc(b1-3)Gal(b1-4)GlcNAc(b1-3)Gal(b1-4)GlcNAc(b1-3)Gal(b1-4)GlcNAc(b1-2)[GlcNAc(b1-3)Gal(b1-4)GlcNAc(b1-3)Gal(b1-4)GlcNAc(b1-3)Gal(b1-4)GlcNAc(b1-3)Gal(b1-4)GlcNAc(b1-6)]Man(a1-6)[GlcNAc(b1-3)Gal(b1-4)GlcNAc(b1-3)Gal(b1-4)GlcNAc(b1-3)Gal(b1-4)GlcNAc(b1-3)Gal(b1-4)GlcNAc(b1-2)Man(a1-3)]Man(b1-4)GlcNAc(b1-4)[Fuc(a1-6)]GlcNAc
Outline: as §1

[19] = target: GlcNAc(b1-3)Gal(b1-4)GlcNAc(b1-3)Gal(b1-4)GlcNAc(b1-3)GalNAc
Outline: as §1

[20] = target: GlcNAc(b1-3)Gal(b1-4)GlcNAc(b1-3)GalNAc
Outline: as §1

[21] = target: GlcNAc(b1-3)Gal(b1-4)GlcNAc(b1-3)[GlcNAc(b1-3)Gal(b1-4)GlcNAc(b1-3)]GalNAc
Outline: as §1

[22] = target: GlcNAc(b1-3)Gal(b1-4)GlcNAc(b1-6)[Gal(b1-3)]GalNAc
Outline: as §1

[23] = target: GlcNAc(b1-3)Gal(b1-4)GlcNAc(b1-6)[GlcNAc(b1-3)Gal(b1-3)]GalNAc
Outline: as §1

[24] = target: GlcNAc(b1-3)Gal(b1-4)GlcNAc(b1-6)[GlcNAc(b1-3)]Gal(b1-4)GlcNAc
Outline: as §1

GlcNAc(b1-3)GalNAc = target: GlcNAc(b1-3)GalNAc
Outline: as §1

GlcNAc(b1-3)Man = target: GlcNAc(b1-3)Man
Outline: as §1

[25] = target: GlcNAc(b1-3)[GlcNAc(b1-4)][GlcNAc(b1-6)]GlcNAc
Outline: as §1

[26] = target: GlcNAc(b1-3)[GlcNAc(b1-6)]Gal(b1-4)GlcNAc
Outline: as §1

[27] = target: GlcNAc(b1-3)[GlcNAc(b1-6)]GalNAc
Outline: as §1

[28] = target: GlcNAc(b1-4)Gal(b1-4)GlcNAc
Outline: as §1

GlcNAc(b1-4)GlcNAc = target: GlcNAc(b1-4)GlcNAc
Outline: as §1

[29] = target: GlcNAc(b1-4)GlcNAc(b1-4)GlcNAc
Outline: as §1

[30] = target: GlcNAc(b1-4)GlcNAc(b1-4)GlcNAc(b1-4)GlcNAc(b1-4)GlcNAc
Outline: as §1

[31] = target: GlcNAc(b1-4)GlcNAc(b1-4)GlcNAc(b1-4)GlcNAc(b1-4)GlcNAc(b1-4)GlcNAc
Outline: as §1

B1: LlpA1 (Pseudomonas fluorescens), Q4KHC3 (protein)
chain: MGSSHHHHHHSSGLVPRGSHMAWIRYDFTDNGSSVLPARYYMAPNQYLQSPNKRFKLLFQADGNLALYDGAQLAWVADQNTPFTNVSKGNKKDPMMVFMNYGFVLDDPLRGRIWSTTPSDPTMGSREDASLRAFTQVQDDGNIVTVDTIPHWYAPNGRVFTPAVGAAMIIGGTTELVPGQFYSAGEHSLVFQGDGNLVVYGPNSSVIWATYTQNKGGVRCVMQEDGNLVIYAANNGVVWQSGTGGHPGATIRLQANGSFTIVTERPVWARFGYTPTIKPPRVFYPDHKWKTGSYTWNNVF
[1]
  glycan array binding signal (z-score): -0.125
[2]
  glycan array binding signal (z-score): 0.061
[3]
  glycan array binding signal (z-score): -0.662
GlcNAc(b1-3)Fuc
  glycan array binding signal (z-score): -0.101
GlcNAc(b1-3)Gal
  glycan array binding signal (z-score): -0.357
[4]
  glycan array binding signal (z-score): 0.303
GlcNAc(b1-3)Gal(b1-4)Glc
  glycan array binding signal (z-score): -0.09
[5]
  glycan array binding signal (z-score): -0.439
[6]
  glycan array binding signal (z-score): -0.487
[7]
  glycan array binding signal (z-score): 0.23
[8]
  glycan array binding signal (z-score): 0.694
[9]
  glycan array binding signal (z-score): -0.81
[10]
  glycan array binding signal (z-score): 0.156
[11]
  glycan array binding signal (z-score): 1.46
[12]
  glycan array binding signal (z-score): 0.68
[13]
  glycan array binding signal (z-score): 0.013
[14]
  glycan array binding signal (z-score): 1.27
[15]
  glycan array binding signal (z-score): -0.254
[16]
  glycan array binding signal (z-score): 0.226
[17]
  glycan array binding signal (z-score): 0.726
[18]
  glycan array binding signal (z-score): 0.306
[19]
  glycan array binding signal (z-score): -0.217
[20]
  glycan array binding signal (z-score): -0.404
[21]
  glycan array binding signal (z-score): -0.26
[22]
  glycan array binding signal (z-score): 1.44
[23]
  glycan array binding signal (z-score): 1.87
[24]
  glycan array binding signal (z-score): -0.55
GlcNAc(b1-3)GalNAc
  glycan array binding signal (z-score): 0.039
GlcNAc(b1-3)Man
  glycan array binding signal (z-score): 1.3
[25]
  glycan array binding signal (z-score): 0.416
[26]
  glycan array binding signal (z-score): 0.307
[27]
  glycan array binding signal (z-score): -0.057
[28]
  glycan array binding signal (z-score): -0.371
GlcNAc(b1-4)GlcNAc
  glycan array binding signal (z-score): 0.141
[29]
  glycan array binding signal (z-score): -0.285
[30]
  glycan array binding signal (z-score): 0.347
[31]
  glycan array binding signal (z-score): 0
